The other results are listed elsewhere or left out. Values are raw readings; no control value is given beside them.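 In the initial screen, polymyxin B was used at a concentration that permeabilizes Salmonella's outer membrane but not its inner membrane. Maximum growth was set by DMSO wells with or without polymyxin B. Since plates varied, data were ranked per plate, and compounds giving the lowest OD600 advanced as hits.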
Test system: Salmonella enterica serovar Typhimurium SL1344
Experiment: bacterial growth OD600 after 18 h with compound and polymyxin B; higher = more bacterial growth (less inhibition)
Settings: 50 µM, Mueller-Hinton broth

| Compound | bacterial growth OD600 (polymyxin B 1 µg/mL) | bacterial growth OD600 (polymyxin B 0.75 µg/mL) |
| --- | --- | --- |
| COc1ccc(OC)c(NC(=O)N(C)CC2CCCN(CCc3ccccc3OC)C2)c1 (stereo unspecified) | 1.12 |  |
| Cc1ccc(-c2n[nH]cc2CN(Cc2nccn2C)C(C)C)cc1C | 1.34 |  |
| COc1cccc(-c2nc3ccc(C(=O)N(C)Cc4ccc(C)o4)cc3o2)c1 | 0.707 |  |
| CC(CCn1cccn1)Nc1ccc(-c2nc(C3CC3)no2)cn1 (stereo unspecified) | 1.03 |  |
| Cc1cccc(NC(=O)CCC2CCN(S(=O)(=O)N(C)C)CC2)c1 | 0.91 |  |
| CCOC(=O)C1(Cc2ccc(Cl)cc2)CCN(Cc2cc(C(C)C)[nH]n2)CC1 | 0.79 |  |
| COc1cccc(CCC2CCCN(C(=O)c3cccc4nccnc34)C2)c1 (stereo unspecified) |  | 0.771 |
| Cn1cc(CN(CCN2CCCCC2)CC2CCCN(C3CCCC3)C2)cn1 (stereo unspecified) |  | 0.866 |
| COCC1CCCN(C(=O)c2cc(Cn3ccc4ccccc43)[nH]n2)C1 (stereo unspecified) |  | 0.975 |
| Cc1nn(C)cc1CNC(C)c1cnn(-c2cccc3ccccc23)c1C (stereo unspecified) |  | 0.833 |
| CC(C)S(=O)(=O)N1C[C@H]2OC(=O)N(CCc3ccc(F)cc3)[C@H]2C1 |  | 0.875 |
| CCOC(=O)C1CCCN(C(=O)c2oc3ccc(C)cc3c2C)C1 (stereo unspecified) |  | 0.005 |
| O=C(NCCc1cn2cccnc2n1)c1coc(COc2cccc(F)c2F)n1 |  | 0.812 |
| COCc1ccc(CN(C)CC2CCCN(CCc3ccccc3OC)C2)o1 (stereo unspecified) | 0.956 |  |
| COc1ccc(-c2cc(C(=O)NC3CCCN(Cc4ccccn4)C3)[nH]n2)cc1 (stereo unspecified) |  | 0.728 |
| CCC1(C2CCN(C(=O)Cc3ccc(OC)cc3)CC2)NC(=O)N(Cc2ccc3c(c2)OCO3)C1=O (stereo unspecified) |  | 0.809 |

| Compound | bacterial growth OD600 (polymyxin B 1 µg/mL) | bacterial growth OD600 (polymyxin B 0.75 µg/mL) |
| --- | --- | --- |
| O=C(c1cc(COc2ccc3c(c2)OCO3)[nH]n1)N1CCN2CCCC2C1 (stereo unspecified) | 0.876 |  |
| C=CCC(O)(CC=C)CNC(=O)CCC1(Cc2ccc(Cl)cc2)CCC(=O)N1 (stereo unspecified) |  | 0.827 |
| O=C(c1cn(Cc2ccccc2F)nn1)N1CCC(OCc2ccccn2)CC1 | 0.913 |  |
| FC(F)(F)CCCN1CCC(C2CCN(c3ncccn3)CC2)C1 (stereo unspecified) |  | 0.697 |
| O=C(c1ccc(F)cc1F)N1CCCC(Nc2ccc(F)cc2)C1 (stereo unspecified) | 0.851 |  |
| CN(C)C1CCN(c2ccc(-c3nc(COc4ccccc4)no3)cn2)C1 (stereo unspecified) | 0.902 |  |
| CN(C)CCN1C(=O)NC(Cc2cccc(F)c2)(C2CCN(C(=O)CCC3CCCC3)CC2)C1=O (stereo unspecified) |  | 0.775 |
| O=C1N(Cc2cccc(F)c2F)CCCC1(O)CN1CCCOCC1 (stereo unspecified) | 0.914 |  |
| COC(=O)CCNC(=O)CC(c1ccccc1)c1ccccc1F (stereo unspecified) |  | 0.708 |
| CCN(CC)CC(O)COc1cc(CNCc2cc(F)ccc2C)ccc1OC (stereo unspecified) | 1.05 |  |
| O=C(c1cn(C2CCCCCC2)nn1)N1CCCC1c1ccc(F)cc1 (stereo unspecified) | 0.605 |  |
| Cc1cccc(NC(=O)N2C[C@H]3OC(=O)N(CCc4ccc(F)cc4)[C@H]3C2)c1 |  | 0.749 |
| Cc1ccc(C(=O)N(C)C2CCCN(CCc3ccccc3)C2)cc1N1CCNC1=O (stereo unspecified) | 1.22 |  |
| COCCn1cnc2cc(NC(=O)C3CCCCC3)cc(C(=O)NCc3cccc(F)c3F)c21 |  | 0.734 |
| COc1ccc(CN(C)C2CCOCC2)c(OCC(O)CN2CCCCCCC2)c1 (stereo unspecified) | 1.09 |  |

Source: the supplement of paper PMC12889115
